Laboratory results: PubChem BioAssay AID1296 (Columbia University Molecular Screening Center, 2008)
About 1,000 (0.77%) of roughly 130,000 compounds were called active. Inconclusive means that the source gave no clear call. Such entries were picked first, then a sample of the others.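 The calls were made as follows: active = activation at 2 µM above a set limit, confirmed on inspection of the cell images; inconclusive = above the set limit but not confirmed on image inspection; inactive = the rest.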

assay: activators of insulin promoter-driven GFP, primary screen, imaging, TRM-6 cells (human fetal islet line), eGFP reporter, cell count (AID 1296;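 also: share of cells whose green reporter signal exceeds an intensity cutoff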); details: at 2 µM, stronger effect = higher value, plate-scaled: unstimulated 0, stimulated control 100
Outline: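 Assay system: TRM-6 insulin promoter–eGFP reporter cells / Input: 1,000 cells per well / Medium: Low-glucose (5.5 mM) medium with tamoxifen / Also added: tamoxifen inducer, 0.75 µM, in seeding medium / Timing: overnight tamoxifen, then two-day compound incubation at 37 °C / Signal: automated fluorescence imaging of paraformaldehyde-fixed, Hoechst-counterstained cells, green channel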

Compound | activation
C=C(c1ccc(OCCO)cc1)c1ccc(OCCO)cc1 | inconclusive: 507%
Cc1ccc(-n2c(C)cc(C)c(C#N)c2=O)cc1C | inactive: 0%
CCOC(=O)CCN(Cc1sccc1C)S(=O)(=O)c1ccc(F)cc1 | active: 77.4%
CC(C)Nc1nc(NC(C)C)nc(N(C#N)CCOc2ccc(Cl)cc2Cl)n1 | inactive: 0%
O=C(CN1C(=O)/C(=C/c2cccc(Br)c2)SC1=S)N1CCCC1 | inactive: 121%
COc1ccc(CN(Cc2cccnc2)C(=S)NCCc2ccccc2)cc1OC | inactive: -8.7%
N#C/C(=C\c1sc(N2CCOCC2)nc1-c1ccccc1)C(=O)Nc1cccc2ccccc12 | active: 223%
CCCCSc1n[nH]c(N)n1 | inactive: 6.9%
Cc1ccc(NC(=O)/C(C#N)=C/c2ccccc2C(F)(F)F)cc1 | inconclusive: 315%
CCOc1ccc(NS(=O)(=O)c2ccc(OCC(=O)NCCCOC)cc2)cc1 | inconclusive: 46.6%
CCCN1C(=O)/C(=C\C=C2/Sc3ccccc3N2CCO)SC1=S | inconclusive: 431%
COc1ccccc1CN1C[C@@H]2C[C@@H](c3ccc(C)c(C)c3)N3CCC[C@@]23C1=O | inconclusive: 492%
O=C(c1ccc2snnc2c1)N1CCCCC1 | inconclusive: 467%
CCOc1cc(C=O)ccc1OCCCN1C(=O)NC(C)(C)C1=O | inconclusive: 423%
COc1ccc2[nH]c(-c3cccc(F)c3)cc(=O)c2c1 | inconclusive: 338% [cytotoxic]
CCCCCCC(=O)N/N=C/Cc1ccccc1 | inactive: -6.82%
O=[N+]([O-])c1ccc(Cc2nnc(-c3ccccc3Cl)o2)cc1 | active: 344%
c1ccc(Cc2nn3c(Cn4cnc5ccccc54)nnc3s2)cc1 | inconclusive: 506%
CCC(C)NS(=O)(=O)c1ccc(OCC(=O)N2CCCC2)cc1 (stereo unspecified) | inconclusive: 438%
CCCOC(=O)c1ccc(Oc2cn[nH]c2-c2ccc(OCC)cc2O)cc1 | inconclusive: 157%
COCCN(C(=S)Nc1ccc(C)cc1C)C(C)c1ccco1 (stereo unspecified) | inactive: 0%

Copied from the listing, three compounds:
Compound | activation
COc1ccc2[nH]c(-c3cccc(F)c3)cc(=O)c2c1 | inconclusive: 338% [cytotoxic]
CCCCCCC(=O)N/N=C/Cc1ccccc1 | inactive: -6.82%
O=[N+]([O-])c1ccc(Cc2nnc(-c3ccccc3Cl)o2)cc1 | active: 344%

Continued:

Compound | activation
COc1ccc(OCc2nnc(SCC(N)=O)n2-c2ccccc2OC)cc1 | active: 160%
COc1ccc(NC(=O)C2=C(C)Nc3ncnn3C2c2ccccc2C(F)(F)F)c(OC)c1 (stereo unspecified) | active: 403%
Cc1ccc(-n2nc(C)c(NC(=O)CCl)c2C)cc1C | inconclusive: 479% [cytotoxic]
O=C(O)CCC(=O)NNC(=O)c1ccc(Br)cc1 | inactive: 2.94%
Cn1cc(CC(=O)NCCCN2CCCC2)c2ccccc21 | inconclusive: 554%
O=C1C2C3C=CC(CC3)C2C(=O)N1/N=C/c1ccc(O)c(O)c1 (stereo unspecified) | inconclusive: 222%
C=CCn1c(Cc2cccs2)nnc1SC/C=C/c1ccccc1 | active: 80.6%
O=c1c2cccnc2[nH]c(=S)n1CCCN1CCN(c2ccc(F)cc2)CC1 | inconclusive: 89.5%
Cc1ccc(Nc2ncnc3ccccc23)cc1 | active: 421%
CS(=O)(=O)c1ccccc1-c1nc(-c2ccc(C(F)(F)F)cc2)no1 | inactive: -8.89%
Cc1ccccc1NC(=O)C1(NC(=O)c2cccc(N3C(=O)CSC3c3ccccc3)c2)CCCCC1 (stereo unspecified) | inconclusive: 517%
FC(F)(F)c1cccc(/C=N/NC(=S)NC2CCCCC2)c1 | inconclusive: 192%
C=CCC(CC=C)(NC(=O)c1cccc(C)c1)c1ccccc1 | inconclusive: 80%
c1ccc(CC2CCN(C3=Nc4cccc5cccc3c45)CC2)cc1 | active: 82.9%
Nn1c(Cc2cccc3ccccc23)nnc1SCn1nnc2ccccc2c1=O | inconclusive: 400%
O=C(NCc1ccccc1)N1CCC(c2nc3ccccc3[nH]2)CC1 | inactive: -8.33%
O=C(NCc1ccc2c(c1)OCO2)c1ccc(C2SCC(=O)N2Cc2ccco2)cc1 (stereo unspecified) | inactive: -22.2%
Cc1cc(C(F)(F)F)nc(SCC(=O)NC2CC3CCC2C3)n1 (stereo unspecified) | active: 431%
NNC(=O)CCS(=O)(=O)c1ccc2ccccc2c1 | inconclusive: 450%
N#CC(C#N)=C1C=C2C=C(N3CCCCC3)CCC2CC1 (stereo unspecified) | active: 212%
CC(C(=O)Nc1ccccn1)N1C(=O)C2C3C=CC(C3)C2C1=O (stereo unspecified) | inconclusive: 125%

Compound | activation
Cc1cc2c(ncn2C)c(NS(=O)(=O)c2ccc(Cl)cc2)c1C | inactive: -7.69%
CC1C/C(=C/c2cccn2C)C(=O)/C(=C/c2cccn2C)C1 (stereo unspecified) | inconclusive: 91.7%
COC(CNC(=O)Cn1ncc2ccsc2c1=O)OC | inconclusive: 467%
Cc1ccccc1C(=O)NNC(=O)Cc1ccccc1 | inconclusive: 571%
Cc1cc2cc(CN(Cc3cccs3)C(c3nnnn3C(C)(C)C)C(C)C)c3nnnn3c2cc1C (stereo unspecified) | inconclusive: 438%
O=c1cc(-c2ccccc2)[nH]c2ccccc12 | inconclusive: 279% [cytotoxic]
COc1ccc(-c2[nH]ncc2/C=C(/C#N)C(=O)NC2CCCCCC2)cc1 | inconclusive: 458%
O=C(NCc1ccccn1)C1CCCN(S(=O)(=O)c2ccccc2)C1 (stereo unspecified) | inconclusive: 507%
CCSc1nc2c(c(=O)n1Cc1ccccc1)SC(C)C2 (stereo unspecified) | inconclusive: 429%
CCOCCSc1nnc2nc(C)cc(C)n12 | inconclusive: 465%
CC1CC(C)(C)CC2(C1)NC(=O)N(CC(=O)NCCc1c[nH]c3ccccc13)C2=O (stereo unspecified) | inactive: -5.88%
COc1cccc(OCCc2c(C)n[nH]c2C)c1 | inconclusive: 583%
CCCCc1ccc(C2C(C#N)=C(N)SC(N)=C2C#N)s1 | active: 275%
CCC(=O)Nc1nc2nc(C)cc(=O)n2[nH]1 | inactive: -4.17%
CCOc1ccc(CCNC(=O)C2CCCN(C(=O)N(C)C)C2)cc1OCC (stereo unspecified) | inactive: 1.3%
COc1cc(NS(=O)(=O)c2ccc(NC(=S)NC(=O)CC(C)C)cc2)nc(OC)n1 | inconclusive: 406%
CCOC(=O)C1=C(C)NC(=O)NC1c1cc(C)sc1C (stereo unspecified) | inactive: -4.54%
COc1ccc(NS(=O)(=O)c2cccc(-c3nnc(-c4ccccc4)o3)c2)cc1 | inactive: 207%
CC1CCN(c2ccccc2NC(=S)NC(=O)c2ccco2)CC1 | active: 230%
